The source of these data is article PMC3815135.

Amino acid sequences for entries named in this document (tags omitted). A change or cut given only in a name is not applied to a line headed by its entry.
UniProt P55980: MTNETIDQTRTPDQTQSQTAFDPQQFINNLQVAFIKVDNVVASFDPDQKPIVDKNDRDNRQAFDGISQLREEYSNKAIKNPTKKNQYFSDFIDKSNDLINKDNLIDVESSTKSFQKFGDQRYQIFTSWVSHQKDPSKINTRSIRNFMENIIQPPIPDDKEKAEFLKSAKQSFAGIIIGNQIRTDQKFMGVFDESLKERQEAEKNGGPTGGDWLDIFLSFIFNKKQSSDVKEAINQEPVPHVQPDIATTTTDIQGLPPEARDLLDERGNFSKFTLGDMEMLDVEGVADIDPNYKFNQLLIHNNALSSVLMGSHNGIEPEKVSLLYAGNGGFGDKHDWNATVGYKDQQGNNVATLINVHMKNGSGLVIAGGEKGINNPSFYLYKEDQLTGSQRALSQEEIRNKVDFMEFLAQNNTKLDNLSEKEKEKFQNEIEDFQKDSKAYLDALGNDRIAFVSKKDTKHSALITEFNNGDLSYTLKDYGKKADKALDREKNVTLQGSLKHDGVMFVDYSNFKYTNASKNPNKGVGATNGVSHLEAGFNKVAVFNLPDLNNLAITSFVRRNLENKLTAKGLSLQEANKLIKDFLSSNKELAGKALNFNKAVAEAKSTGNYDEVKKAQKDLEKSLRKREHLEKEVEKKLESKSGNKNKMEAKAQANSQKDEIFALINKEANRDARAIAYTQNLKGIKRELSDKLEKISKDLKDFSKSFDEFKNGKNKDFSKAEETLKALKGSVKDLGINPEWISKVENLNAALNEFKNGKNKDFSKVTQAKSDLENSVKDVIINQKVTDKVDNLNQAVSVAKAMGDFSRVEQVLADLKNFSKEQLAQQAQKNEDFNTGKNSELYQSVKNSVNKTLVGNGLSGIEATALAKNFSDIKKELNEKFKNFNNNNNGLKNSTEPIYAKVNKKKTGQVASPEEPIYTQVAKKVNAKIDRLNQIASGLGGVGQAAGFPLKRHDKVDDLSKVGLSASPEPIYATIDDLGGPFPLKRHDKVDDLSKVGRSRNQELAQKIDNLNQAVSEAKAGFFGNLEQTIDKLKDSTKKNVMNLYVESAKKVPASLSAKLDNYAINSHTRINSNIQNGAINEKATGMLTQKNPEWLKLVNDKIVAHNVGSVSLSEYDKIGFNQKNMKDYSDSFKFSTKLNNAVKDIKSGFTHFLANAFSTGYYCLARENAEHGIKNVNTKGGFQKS

Assay in all cases: SEC-MALS; Superdex 200 10/300 in buffer D (30 mM NaAc pH 4.6, 200 mM NaCl), 0.4 ml/min; 50 µl of protein at 5-7 mg/ml loaded; in-line MALS, refractive index and QELS detectors; both purified
For orientation: Size exclusion chromatography separates by hydrodynamic size, large species first.

Experiment [1] deals with CagA middle domain, residues 257-880 (H. pylori strain 26695) (UniProt P55980).
Experiment [2] concerns the target CagA N-terminal domain, residues 22-234 (H. pylori strain 26695) (UniProt P55980).
The target of experiment [3] is CagA middle domain stable core fragment, residues 267-807 (H. pylori strain 26695) (UniProt P55980).
In experiment [4] the target is CagA EPIYA-repeats domain, residues 893-1001 (H. pylori strain 26695) (UniProt P55980).

These are yes or no findings as the source states them, for the method shown.

With “CagA middle domain, residues 257-880 (from UniProt P55980 257-880) (domain or fragment)”, the binding entry in experiment [1] is given as “no binding (tested: 5-7 mg/ml)”.

As to “CagA N-terminal domain, residues 22-234 (from UniProt P55980 22-234) (domain or fragment)”, the binding entry in experiment [2] is recorded as “no binding (tested: 5-7 mg/ml)”. As to “CagA middle domain stable core fragment, residues 267-807 (from UniProt P55980 267-807) (domain or fragment)”, in experiment [3], the binding entry was “no binding (tested: 5-7 mg/ml)”. Take “CagA EPIYA-repeats domain, residues 893-1001 (from UniProt P55980 893-1001) (domain or fragment)”: the binding result in experiment [4] is “no binding (tested: 5-7 mg/ml)”.
